The list shows a part of the results.

This test deals with T1, OsSMF1 (Oryza sativa, UniProt Q6ZLB0 1-436).
T1 sequence: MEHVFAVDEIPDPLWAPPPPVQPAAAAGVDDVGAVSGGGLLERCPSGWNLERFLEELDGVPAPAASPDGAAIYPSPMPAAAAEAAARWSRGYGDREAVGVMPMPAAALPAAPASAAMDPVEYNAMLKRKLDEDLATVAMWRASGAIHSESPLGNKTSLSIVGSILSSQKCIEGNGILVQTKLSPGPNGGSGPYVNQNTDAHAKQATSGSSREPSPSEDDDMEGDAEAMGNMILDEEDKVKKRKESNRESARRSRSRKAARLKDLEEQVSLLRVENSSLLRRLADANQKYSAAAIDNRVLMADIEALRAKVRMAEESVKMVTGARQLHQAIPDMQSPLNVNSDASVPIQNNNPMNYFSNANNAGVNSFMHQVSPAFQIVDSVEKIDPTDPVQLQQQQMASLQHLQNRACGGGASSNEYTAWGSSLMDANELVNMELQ
The test is described as follows: protein-binding microarray (RPBM); PBS, 2% BSA, 51.3 ng/ul salmon testes DNA, 50 uM zinc acetate, 200 nM TF, 25 C, 1 h; high values mean tight binding. The following applies: protein: recombinant; tags: N-terminal polyhistidine and DsRed monomer fusion (pET32a); chain copies: 2; label: CyDye5-dUTP incorporated in the synthesized complementary strand; 3' TTTTT single-stranded linker to array surface; dsDNA, one strand shown. A digest of the protocol:
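The binding signal for each feature is its fluorescence intensity in arbitrary units. An Axon 4000B scanner was used to read a custom Agilent array that had been made double-stranded with Cy5-dUTP primer extension, blocked with 2% BSA, incubated at 25 °C for 1 h with 200 nM protein in PBS, 2% BSA, salmon testes DNA and 50 µM zinc acetate, and washed. The protein was an N-terminal polyhistidine–DsRed transcription factor fusion from E. coli BL21-CodonPlus, purified on Ni–NTA.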
As for “GGAATAATAATGAGAAATGTGGTGATATTTGTCACGTCAGCGGAGTCACCTAGTGCAG”, the binding signal was 5300 fluorescence intensity (a.u.).
Consider “CGTCGTTGTCTTCGCGTCGGTCCTGACCGCGACCCGACATCGGAGTCACCTAGTGCAG”, for which the binding signal is 3500 fluorescence intensity (a.u.).
With “TTCTGCGGGCCGTTCAGCTACTGCGTCAGCAGCGTCGACCCGGAGTCACCTAGTGCAG”, the binding signal was 5910 fluorescence intensity (a.u.).
On to “AGGTGGTGGTGGTGGCAGAGACGTGCGCTCGAACGATTTCCGGAGTCACCTAGTGCAG”, for which the binding signal was 33500 fluorescence intensity (a.u.).
“TTGAATGGTGATGTAACTTGCATGGTTCTACACTTGATGACGGAGTCACCTAGTGCAG”: the binding signal was 3610 fluorescence intensity (a.u.).
For the sequence “TCCCGCCAAACTTCGTCCGCCAGCTCAGCACCAAGGCCCGCGGAGTCACCTAGTGCAG”, the binding signal is 7630 fluorescence intensity (a.u.).
The value for “GCGCGCGTGCACGCCGCGGTCACCGTGGCGAGCGTGGCGGCGGAGTCACCTAGTGCAG” was 3620 fluorescence intensity (a.u.); that for “CTACCATATTCTATCCATCTCCAAGTCCAGTGACTCAGTACGGAGTCACCTAGTGCAG” was 7060 fluorescence intensity (a.u.); that for “CTGAACCCCTGCCTGCTCACCGTCACCGACGAGGACGCCGCGGAGTCACCTAGTGCAG” was 3620 fluorescence intensity (a.u.).
For “GAGGAGGCTGCGCCGGCGAGGTCACGTCATGCTCTCTCTGCGGAGTCACCTAGTGCAG”, the binding signal was 4610 fluorescence intensity (a.u.).
As for “CCCCGCCAAAACCGCTGCCACGTCGTCGTCTCCCGCCAAACGGAGTCACCTAGTGCAG”, the binding signal is 8840 fluorescence intensity (a.u.).
In the case of “TGGAGCAATTATCAGACAATGCTGACGCACAAGAATTCTTCGGAGTCACCTAGTGCAG”, the binding signal was 8420 fluorescence intensity (a.u.).
Next, “TTTATAAGAAACGGCCGTGTTTGGTGGTGGGTGTTGGGAACGGAGTCACCTAGTGCAG”: 3400 fluorescence intensity (a.u.); “GGTACTCCTTCCATATTTTAATACATGACGCCGTTGATTTCGGAGTCACCTAGTGCAG”: 4090 fluorescence intensity (a.u.); “CTCTGTTTCCTCTGCATGCGATGCATGCGTAGATCATCAGCGGAGTCACCTAGTGCAG”: 21200 fluorescence intensity (a.u.).
For the sequence “TGAGAATACCAGATGACAAAAGGTGACAGTAGTTAGGAACCGGAGTCACCTAGTGCAG”, the binding signal was 4190 fluorescence intensity (a.u.).
On to “AATCTTCAATGCCCATCCTTAAGGGTGTGTTTGGATAATGCGGAGTCACCTAGTGCAG”, for which the binding signal was 3930 fluorescence intensity (a.u.).
On to “TCTAACCCCGCCTGCAGATCCGCTCCATCGATTCCCTCCCCGGAGTCACCTAGTGCAG”, for which the binding signal is 31700 fluorescence intensity (a.u.).
The value for “ATTAAACGGGTCGAATTTGTCACCATATAGTACACGTCTCCGGAGTCACCTAGTGCAG” was 4680 fluorescence intensity (a.u.).
Next, “TTCCCTGCAACGTGTTCCCGGGGCTGAAGTGTTCCGGTTCCGGAGTCACCTAGTGCAG”: 4660 fluorescence intensity (a.u.); “TCGCAGTTGGCGTCGCGGCCGCCACCTCCTCCTACTCCGGCGGAGTCACCTAGTGCAG”: 3640 fluorescence intensity (a.u.).
The value for “TCGAGCAGGCCGAGCAGTAGCAGAGCCTCACATCACGTGGCGGAGTCACCTAGTGCAG” was 4100 fluorescence intensity (a.u.); that for “CCACGAGCGCCTGCGTCATCCCGTCTCATCGCGAGTCACCCGGAGTCACCTAGTGCAG” was 9970 fluorescence intensity (a.u.).
With “ACAGCATCGATCGTCGCCACACCACTGCATCGATCTGTTGCGGAGTCACCTAGTGCAG”, the binding signal is 4020 fluorescence intensity (a.u.).
As for “TGTATAATACATGCCCACGCATTCGCGCGGGCTACCCTCCCGGAGTCACCTAGTGCAG”, the binding signal is 3530 fluorescence intensity (a.u.).
For “ATCATGACAAAGCCCCGTCAGCATATGCATCACATCGCACCGGAGTCACCTAGTGCAG”, the binding signal was 11600 fluorescence intensity (a.u.).
With “CCGTGGCTGTGGTTGCTGATGCAGTGAAGGAGAGCCGGAGCGGAGTCACCTAGTGCAG”, the binding signal is 3280 fluorescence intensity (a.u.).
For the sequence “GTATTGGGGATGGGAGAATGGGAGCTGGGAGGGCGGCCGACGGAGTCACCTAGTGCAG”, the binding signal is 3440 fluorescence intensity (a.u.).
For “AGCTGTTCGCCTCGTCCTCGTCCACGCGTAGTGCGAAGCTCGGAGTCACCTAGTGCAG”, the binding signal is 4920 fluorescence intensity (a.u.).
Consider “CACTAAACTACCTATACTATCTCTACTATCACTTGGCTTTCGGAGTCACCTAGTGCAG”, for which the binding signal is 3180 fluorescence intensity (a.u.).
On to “GGTCGTCAGATCACGTTACACGTACATTCCAGCTTCAGATCGGAGTCACCTAGTGCAG”, for which the binding signal was 5280 fluorescence intensity (a.u.).
For “CTTAATTAATTATACACACAAACATTCCCTCCAATGCATGCGGAGTCACCTAGTGCAG”, the binding signal was 3760 fluorescence intensity (a.u.).
The value for “AGCGCCACGTGGAGAAATCCCCACGACTACCTCGGGCGGACGGAGTCACCTAGTGCAG” was 11700 fluorescence intensity (a.u.).
On to “TGGATTACTCATAATGATTATGTCATATAGGTGATGTTGCCGGAGTCACCTAGTGCAG”, for which the binding signal is 3440 fluorescence intensity (a.u.).
The value for “TAATTAATTGATAGTGCCAAATGTTACTCCTATGGCACTGCGGAGTCACCTAGTGCAG” was 36700 fluorescence intensity (a.u.); that for “CTTCGCCTCCCTCTCCGGCTCCAGCACATGGCTGCTTCTCCGGAGTCACCTAGTGCAG” was 4120 fluorescence intensity (a.u.).
Take “ATCCTCGGCGCCGGGCAAGAGGAAGCGGTCGGCGAGGGCGCGGAGTCACCTAGTGCAG”: the binding signal was 38400 fluorescence intensity (a.u.).
The value for “GAATATATATGTTGTATGTGTGTGTATATCCTAGTTCTCTCGGAGTCACCTAGTGCAG” was 3830 fluorescence intensity (a.u.).
“CCTCACCGGTAAACGAGTCACCGGCTATCCTGGCCGGGCACGGAGTCACCTAGTGCAG”: the binding signal is 4320 fluorescence intensity (a.u.).
Take “AGGAAGCTAGAAACACAGTCCCACGGAACGCTTATTTTAACGGAGTCACCTAGTGCAG”: the binding signal is 14100 fluorescence intensity (a.u.).
With “TTTACCACTTAATTATTTTAATCTTATTAATTAATTCTTTCGGAGTCACCTAGTGCAG”, the binding signal was 28200 fluorescence intensity (a.u.).
The value for “AAGAAGAAGTTGCGCTGACATGTAGGATGACTCAACAGGTCGGAGTCACCTAGTGCAG” was 7010 fluorescence intensity (a.u.).

Values taken from paper PMC7819943, “Rice protein-binding microarrays: a tool to detect cis-acting elements near promoter regions in rice”.
